Data as given in PubChem BioAssay AID504786 (Drosophila RNAi Screening Center, 2011).

Test: 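Knock-downs reducing HIF reporter induction by the iron chelator DFO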 (primary screen)
System: Drosophila S2 cells with a stable HIF luciferase reporter
Knock-down reagent: long dsRNA against Drosophila genes, about 0.2 µg dsRNA per well of a 384-well plate
Timing: three days of knock-down, then 20 h of DFO before reading
Conditions: desferrioxamine (DFO) at 100 µM, an iron chelator that mimics hypoxia, for 20 h
Detection: 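Firefly luciferase driven by the mouse ldh-a hypoxia-response element, measured after 20 h of 100 µM DFO; z-scores per plate, higher means more signal lost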
Reading the numbers: z-score: higher = stronger loss of HIF reporter signal
The deposit covers about 21,000 reagents; shown is an unselected part of those with a known target gene and a result. 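Primary screen; positive scores mean lost reporter signal, so the sign may be inverted from the usual convention.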 A plus sign joins genes that one reagent is predicted to hit. Not all columns of the deposit are shown. Reagent sequences are not shown.

predicted target | amplicon | z-score, replicate 1 | z-score, replicate 2 | z-score, replicate 3
Set1 | DRSC20930 | -0.2 | 0 | –
Set1 | DRSC20931 | -0.4 | -0.6 | –
Acp95EF | DRSC14102 | -0.2 | -0.3 | –
Atg16 | DRSC15052 | -0.3 | -0.5 | –
Atg16 | DRSC15300 | 0 | -0.6 | –
Atg16 | DRSC15375 | -0.2 | -0.5 | –
Eig71Ei | DRSC11156 | -0.2 | -0.4 | –
Vti1a | DRSC08563 | 0.1 | 0 | –
CG14260 | DRSC14755 | 0 | -0.8 | –
chb | DRSC11469 | 0.3 | 0 | –
spg | DRSC14373 | -0.2 | -0.6 | –
spg | DRSC14881 | -0.4 | 0.3 | –
Archease | DRSC16025 | 0 | -0.7 | –
l(2)10685 | DRSC00665 | 0 | -0.1 | –
RSG7 | DRSC20274 | -0.3 | -0.4 | –
CG10710 | DRSC09784 | -0.2 | 0.8 | –
SLIRP2 | DRSC16363 | -0.3 | -0.6 | –
ppk19 | DRSC15321 | -0.5 | 0.1 | –
mRpS26 | DRSC10823 | 0 | -0.1 | –
vrs | DRSC15832 | -0.3 | -0.1 | –
mRpL41 | DRSC06257 | 2.4 | 0.9 | –
CG1309 | DRSC08302 | -0.1 | -0.2 | –
CG7332 | DRSC20038 | -0.3 | -0.4 | –
CG42254 (retired record) | DRSC06194 | -0.2 | -0.3 | –
PolD3 | DRSC01961 | -0.2 | -0.5 | –

Next part (6 carried over from the part before).
predicted target | amplicon | z-score, replicate 1 | z-score, replicate 2 | z-score, replicate 3
vrs | DRSC15832 | -0.3 | -0.1 | –
mRpL41 | DRSC06257 | 2.4 | 0.9 | –
CG1309 | DRSC08302 | -0.1 | -0.2 | –
CG7332 | DRSC20038 | -0.3 | -0.4 | –
CG42254 (retired record) | DRSC06194 | -0.2 | -0.3 | –
PolD3 | DRSC01961 | -0.2 | -0.5 | –
Marf | DRSC18329 | 0.7 | 0.8 | –
rictor | DRSC20071 | -0.4 | -0.2 | –
PpD3 | DRSC16796 | -0.3 | -0.9 | –
CG7878 | DRSC16330 | -0.2 | -0.6 | –
CtsK1 | DRSC08742 | 0.1 | 0 | –
HGTX | DRSC09319 | 0.3 | 0 | –
HGTX | DRSC11181 | 0 | 0.2 | –
His4:CG33883 + His4:CG33889 + His4:CG33899 + 20 more | DRSC21268 | 0.3 | -0.2 | –
Utx | DRSC02872 | -0.1 | -0.2 | –
CG14340 | DRSC00370 | -0.3 | -0.7 | –
CG3408 | DRSC10360 | -0.3 | -0.3 | –
TwdlP | DRSC14734 | 0 | 0.1 | –
Rpn12R | DRSC09842 | -0.1 | 0.2 | –
CG5402 | DRSC15792 | 0.1 | 0.6 | –
RpL37A | DRSC02899 | 2.6 | 4.2 | –
dod | DRSC20577 | 0.2 | 0.7 | –
TwdlJ | DRSC15812 | 0 | 0.4 | –
Mrm2 | DRSC14310 | -0.7 | -0.4 | –
CG18304 | DRSC02664 | -0.2 | -0.2 | –
ValRS | DRSC06864 | 0.4 | 0.3 | –
CG3764 | DRSC10375 | -0.3 | -0.1 | –
Ythdc1 | DRSC08141 | -0.4 | -0.7 | –
lectin-46Ca | DRSC06612 | -0.2 | 0 | -0.6
CG11068 | DRSC19369 | -0.3 | -0.6 | –
Pde6 | DRSC16401 | 0 | -0.2 | –
Pde6 | DRSC16402 | -0.1 | -0.5 | –
Pde6 | DRSC16403 | -0.1 | -0.4 | –
CG6652 | DRSC10686 | -0.3 | -0.6 | –
CG6885 | DRSC10740 | -0.3 | -0.1 | –
CG30495 | DRSC06703 | -0.4 | -0.4 | –
CG7202 | DRSC11818 | -0.2 | -0.3 | –
